Data published in article PMC6747720.

Sequences of proteins named here, by UniProt entry; tags and fusion partners are left off. A change or cut given only in a name is not applied to a line headed by its entry. Residues count along the entry.
UniProt P20702, residues 20-1107: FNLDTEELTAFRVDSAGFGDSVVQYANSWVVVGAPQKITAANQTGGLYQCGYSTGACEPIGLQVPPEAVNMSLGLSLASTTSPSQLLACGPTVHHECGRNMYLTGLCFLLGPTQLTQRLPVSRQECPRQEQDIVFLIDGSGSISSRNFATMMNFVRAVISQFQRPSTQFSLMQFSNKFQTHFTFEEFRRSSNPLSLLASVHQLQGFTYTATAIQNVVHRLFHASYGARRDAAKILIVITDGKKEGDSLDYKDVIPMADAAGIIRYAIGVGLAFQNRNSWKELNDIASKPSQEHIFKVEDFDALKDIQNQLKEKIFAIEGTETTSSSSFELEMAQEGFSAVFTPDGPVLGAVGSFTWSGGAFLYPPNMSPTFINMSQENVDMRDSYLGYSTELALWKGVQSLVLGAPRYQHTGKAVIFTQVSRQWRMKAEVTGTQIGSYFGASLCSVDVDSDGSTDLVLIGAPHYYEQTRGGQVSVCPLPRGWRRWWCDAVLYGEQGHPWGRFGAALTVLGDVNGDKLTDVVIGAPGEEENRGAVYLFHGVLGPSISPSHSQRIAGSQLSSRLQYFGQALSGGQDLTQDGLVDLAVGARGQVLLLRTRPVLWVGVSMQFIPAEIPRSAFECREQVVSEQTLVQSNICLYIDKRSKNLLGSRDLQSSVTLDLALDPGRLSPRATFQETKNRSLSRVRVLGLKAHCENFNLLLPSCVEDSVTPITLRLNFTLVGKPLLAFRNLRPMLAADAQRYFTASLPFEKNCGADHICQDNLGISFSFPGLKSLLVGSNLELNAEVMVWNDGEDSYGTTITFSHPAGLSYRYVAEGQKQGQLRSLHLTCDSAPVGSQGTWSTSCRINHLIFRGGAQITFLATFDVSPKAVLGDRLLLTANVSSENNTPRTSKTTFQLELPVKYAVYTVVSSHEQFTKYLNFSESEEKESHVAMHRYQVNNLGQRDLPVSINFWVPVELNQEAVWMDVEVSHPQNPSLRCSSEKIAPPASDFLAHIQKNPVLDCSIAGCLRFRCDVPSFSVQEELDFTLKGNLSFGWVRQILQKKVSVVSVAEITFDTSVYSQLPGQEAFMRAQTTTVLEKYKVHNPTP
UniProt P05107, residues 23-700: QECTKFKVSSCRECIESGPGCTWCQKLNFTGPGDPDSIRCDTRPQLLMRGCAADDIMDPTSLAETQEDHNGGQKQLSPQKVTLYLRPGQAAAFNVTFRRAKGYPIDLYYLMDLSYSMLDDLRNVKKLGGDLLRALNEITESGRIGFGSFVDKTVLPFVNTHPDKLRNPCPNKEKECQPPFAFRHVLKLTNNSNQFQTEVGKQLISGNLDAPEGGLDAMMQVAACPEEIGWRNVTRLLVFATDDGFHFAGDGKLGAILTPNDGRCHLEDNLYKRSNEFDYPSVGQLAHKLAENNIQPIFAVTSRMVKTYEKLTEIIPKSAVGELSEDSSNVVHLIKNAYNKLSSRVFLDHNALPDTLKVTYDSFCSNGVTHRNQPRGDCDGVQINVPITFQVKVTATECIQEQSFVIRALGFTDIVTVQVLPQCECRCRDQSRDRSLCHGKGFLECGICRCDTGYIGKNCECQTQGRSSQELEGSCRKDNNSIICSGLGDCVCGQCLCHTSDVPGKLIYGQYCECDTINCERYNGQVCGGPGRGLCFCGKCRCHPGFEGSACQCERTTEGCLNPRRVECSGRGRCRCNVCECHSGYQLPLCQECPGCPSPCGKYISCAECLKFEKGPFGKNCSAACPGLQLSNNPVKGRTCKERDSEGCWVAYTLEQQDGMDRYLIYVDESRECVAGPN
UniProt P09983: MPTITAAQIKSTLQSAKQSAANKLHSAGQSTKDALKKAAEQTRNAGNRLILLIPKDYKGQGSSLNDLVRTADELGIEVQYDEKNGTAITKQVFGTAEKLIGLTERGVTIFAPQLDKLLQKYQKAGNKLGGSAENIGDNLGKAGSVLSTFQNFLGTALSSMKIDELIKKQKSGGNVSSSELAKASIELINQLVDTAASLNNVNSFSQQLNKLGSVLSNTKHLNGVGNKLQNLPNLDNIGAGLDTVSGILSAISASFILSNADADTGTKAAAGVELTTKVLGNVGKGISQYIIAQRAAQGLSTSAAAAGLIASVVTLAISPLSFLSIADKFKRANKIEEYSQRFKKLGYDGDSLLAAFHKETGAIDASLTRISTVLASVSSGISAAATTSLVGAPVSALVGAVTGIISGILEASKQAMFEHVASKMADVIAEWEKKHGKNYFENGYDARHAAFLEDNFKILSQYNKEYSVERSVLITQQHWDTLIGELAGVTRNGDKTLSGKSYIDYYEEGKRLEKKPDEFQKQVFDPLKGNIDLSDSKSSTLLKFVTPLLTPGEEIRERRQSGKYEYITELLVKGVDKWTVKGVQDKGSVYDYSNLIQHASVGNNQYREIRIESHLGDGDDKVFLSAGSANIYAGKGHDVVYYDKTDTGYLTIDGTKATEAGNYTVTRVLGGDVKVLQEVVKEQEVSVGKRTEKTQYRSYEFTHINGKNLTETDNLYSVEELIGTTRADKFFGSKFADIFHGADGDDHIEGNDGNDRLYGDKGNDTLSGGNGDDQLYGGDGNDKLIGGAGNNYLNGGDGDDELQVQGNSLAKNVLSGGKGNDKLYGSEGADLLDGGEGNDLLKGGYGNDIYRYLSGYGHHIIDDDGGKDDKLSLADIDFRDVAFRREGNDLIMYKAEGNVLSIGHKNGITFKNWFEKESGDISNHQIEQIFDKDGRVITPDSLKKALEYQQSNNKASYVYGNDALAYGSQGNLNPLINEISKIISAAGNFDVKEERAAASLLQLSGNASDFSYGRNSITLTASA

Key:
Experiment in all cases: far-Western, overlay or dot blot; 500 ng recombinant integrin heterodimer per lane separated on a 4 to 20% gradient SDS-PAGE gel, transferred to nitrocellulose, blocked in 3% BSA-0.5% Tween 20 in PBS, probed with PEG-precipitated HlyA or LtxA at 1 μg/ml for 1 h at room temperature; bound toxin detected with anti-HlyA antibodies, integrin subunits with their own antibodies (near-infrared fluorescence); only the target purified
[1] = biological target: T1, integrin αL subunit (CD11a), as subunit of recombinant human integrin αLβ2 (human) (UniProt P20701)
T1 sequence: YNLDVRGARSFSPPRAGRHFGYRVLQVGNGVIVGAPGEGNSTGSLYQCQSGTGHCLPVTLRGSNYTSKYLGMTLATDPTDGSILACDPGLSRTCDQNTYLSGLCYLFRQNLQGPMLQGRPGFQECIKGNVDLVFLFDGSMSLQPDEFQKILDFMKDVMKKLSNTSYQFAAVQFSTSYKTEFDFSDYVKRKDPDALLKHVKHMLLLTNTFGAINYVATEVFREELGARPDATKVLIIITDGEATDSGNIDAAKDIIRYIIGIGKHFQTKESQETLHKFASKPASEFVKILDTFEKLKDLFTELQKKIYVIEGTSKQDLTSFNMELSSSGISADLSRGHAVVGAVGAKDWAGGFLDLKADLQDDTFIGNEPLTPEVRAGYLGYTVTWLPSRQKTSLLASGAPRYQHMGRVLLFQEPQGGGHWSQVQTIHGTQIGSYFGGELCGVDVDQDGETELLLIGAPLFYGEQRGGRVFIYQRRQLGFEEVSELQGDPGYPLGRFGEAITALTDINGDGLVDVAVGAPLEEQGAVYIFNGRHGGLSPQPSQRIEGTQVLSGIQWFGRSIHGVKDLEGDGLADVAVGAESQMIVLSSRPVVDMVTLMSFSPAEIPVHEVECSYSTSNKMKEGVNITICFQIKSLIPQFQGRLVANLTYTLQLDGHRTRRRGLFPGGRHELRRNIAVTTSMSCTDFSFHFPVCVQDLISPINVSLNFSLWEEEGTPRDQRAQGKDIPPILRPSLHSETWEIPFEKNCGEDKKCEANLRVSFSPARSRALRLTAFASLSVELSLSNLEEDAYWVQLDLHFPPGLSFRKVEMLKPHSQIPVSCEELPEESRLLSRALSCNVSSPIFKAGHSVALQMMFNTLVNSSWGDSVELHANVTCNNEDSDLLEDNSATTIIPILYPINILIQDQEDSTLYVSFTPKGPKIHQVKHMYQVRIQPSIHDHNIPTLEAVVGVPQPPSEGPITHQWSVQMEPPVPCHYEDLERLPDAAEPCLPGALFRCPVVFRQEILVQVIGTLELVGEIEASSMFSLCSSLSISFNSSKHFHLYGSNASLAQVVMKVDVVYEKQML

[2] = biological target: integrin αX subunit (CD11c), as subunit of recombinant human integrin αXβ2 (human) (UniProt P20702)
[3] = biological target: β2 integrin β subunit (CD18), as subunit of recombinant human integrin αLβ2, αMβ2 and αXβ2 (human) (UniProt P05107)

For “Escherichia coli hemolysin (HlyA) (from UniProt P09983)”, the binding [1] was “no binding (tested: 1 μg/ml)”, the binding [2] was “no binding (tested: 1 μg/ml)” and the binding [3] was “binds”.

These are yes or no findings as the source states them, for the method shown. For part of these data: Binding calls can cover weak binding; strength is not graded here.
